From the supplement of paper PMC10849652
The list shows a part of the results.

Amino acid sequences for entries named in this document (tags omitted). A change or cut given only in a name is not applied to a line headed by its entry.
UniProt O75191: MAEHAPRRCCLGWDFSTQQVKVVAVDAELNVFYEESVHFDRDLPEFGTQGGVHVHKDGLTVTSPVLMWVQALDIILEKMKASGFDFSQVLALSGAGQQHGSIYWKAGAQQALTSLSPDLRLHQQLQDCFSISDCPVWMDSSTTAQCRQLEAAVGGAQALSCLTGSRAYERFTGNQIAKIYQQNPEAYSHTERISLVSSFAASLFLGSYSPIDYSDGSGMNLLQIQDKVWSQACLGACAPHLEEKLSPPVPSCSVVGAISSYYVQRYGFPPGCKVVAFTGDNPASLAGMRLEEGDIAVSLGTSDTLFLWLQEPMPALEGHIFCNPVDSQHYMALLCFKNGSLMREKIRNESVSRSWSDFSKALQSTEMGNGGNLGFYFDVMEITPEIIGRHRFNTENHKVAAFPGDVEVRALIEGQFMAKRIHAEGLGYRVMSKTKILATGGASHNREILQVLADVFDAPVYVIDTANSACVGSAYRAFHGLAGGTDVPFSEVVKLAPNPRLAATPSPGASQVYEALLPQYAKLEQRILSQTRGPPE
UniProt Q5T750: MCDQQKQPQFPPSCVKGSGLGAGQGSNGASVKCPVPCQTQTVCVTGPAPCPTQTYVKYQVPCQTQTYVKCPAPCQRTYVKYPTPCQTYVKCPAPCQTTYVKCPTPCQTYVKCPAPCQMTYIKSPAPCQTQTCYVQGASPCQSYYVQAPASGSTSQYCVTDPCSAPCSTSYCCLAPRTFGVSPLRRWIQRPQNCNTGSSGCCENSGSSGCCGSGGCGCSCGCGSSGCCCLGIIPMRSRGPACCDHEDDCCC
UniProt Q9NP64: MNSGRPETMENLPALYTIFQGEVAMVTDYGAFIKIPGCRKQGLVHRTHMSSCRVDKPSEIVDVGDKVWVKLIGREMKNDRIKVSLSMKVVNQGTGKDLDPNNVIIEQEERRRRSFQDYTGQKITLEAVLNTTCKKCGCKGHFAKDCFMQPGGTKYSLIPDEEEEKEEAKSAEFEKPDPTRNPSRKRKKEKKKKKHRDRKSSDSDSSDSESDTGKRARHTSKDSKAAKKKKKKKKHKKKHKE
UniProt P23025: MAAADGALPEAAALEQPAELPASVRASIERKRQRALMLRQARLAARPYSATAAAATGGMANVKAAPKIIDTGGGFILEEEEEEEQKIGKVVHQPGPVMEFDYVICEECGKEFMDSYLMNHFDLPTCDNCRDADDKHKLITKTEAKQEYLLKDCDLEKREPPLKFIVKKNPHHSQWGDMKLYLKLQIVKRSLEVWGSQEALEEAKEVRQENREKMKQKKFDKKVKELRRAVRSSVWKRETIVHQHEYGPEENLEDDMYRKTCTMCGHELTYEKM
UniProt Q9ULC8: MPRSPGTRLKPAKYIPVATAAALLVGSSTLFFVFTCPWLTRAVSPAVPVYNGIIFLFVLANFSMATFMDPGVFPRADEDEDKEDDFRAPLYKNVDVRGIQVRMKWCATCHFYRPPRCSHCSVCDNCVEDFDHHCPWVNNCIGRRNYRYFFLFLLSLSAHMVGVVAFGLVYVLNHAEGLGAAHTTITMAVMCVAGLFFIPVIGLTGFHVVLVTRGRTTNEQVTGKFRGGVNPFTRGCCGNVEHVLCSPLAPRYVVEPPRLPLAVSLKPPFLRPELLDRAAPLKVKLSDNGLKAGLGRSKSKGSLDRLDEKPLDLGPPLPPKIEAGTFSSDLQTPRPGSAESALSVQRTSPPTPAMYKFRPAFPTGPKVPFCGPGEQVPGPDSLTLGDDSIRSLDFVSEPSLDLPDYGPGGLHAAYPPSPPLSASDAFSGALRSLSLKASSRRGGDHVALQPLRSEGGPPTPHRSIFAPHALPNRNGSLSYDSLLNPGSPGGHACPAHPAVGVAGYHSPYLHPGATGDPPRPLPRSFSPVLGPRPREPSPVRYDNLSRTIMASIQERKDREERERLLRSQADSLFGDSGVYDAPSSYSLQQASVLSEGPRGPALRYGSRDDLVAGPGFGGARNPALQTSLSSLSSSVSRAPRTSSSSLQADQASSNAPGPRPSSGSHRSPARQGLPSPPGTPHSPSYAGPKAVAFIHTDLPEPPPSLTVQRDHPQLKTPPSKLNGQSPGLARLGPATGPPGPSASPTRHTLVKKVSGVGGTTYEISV
UniProt Q9ULU4: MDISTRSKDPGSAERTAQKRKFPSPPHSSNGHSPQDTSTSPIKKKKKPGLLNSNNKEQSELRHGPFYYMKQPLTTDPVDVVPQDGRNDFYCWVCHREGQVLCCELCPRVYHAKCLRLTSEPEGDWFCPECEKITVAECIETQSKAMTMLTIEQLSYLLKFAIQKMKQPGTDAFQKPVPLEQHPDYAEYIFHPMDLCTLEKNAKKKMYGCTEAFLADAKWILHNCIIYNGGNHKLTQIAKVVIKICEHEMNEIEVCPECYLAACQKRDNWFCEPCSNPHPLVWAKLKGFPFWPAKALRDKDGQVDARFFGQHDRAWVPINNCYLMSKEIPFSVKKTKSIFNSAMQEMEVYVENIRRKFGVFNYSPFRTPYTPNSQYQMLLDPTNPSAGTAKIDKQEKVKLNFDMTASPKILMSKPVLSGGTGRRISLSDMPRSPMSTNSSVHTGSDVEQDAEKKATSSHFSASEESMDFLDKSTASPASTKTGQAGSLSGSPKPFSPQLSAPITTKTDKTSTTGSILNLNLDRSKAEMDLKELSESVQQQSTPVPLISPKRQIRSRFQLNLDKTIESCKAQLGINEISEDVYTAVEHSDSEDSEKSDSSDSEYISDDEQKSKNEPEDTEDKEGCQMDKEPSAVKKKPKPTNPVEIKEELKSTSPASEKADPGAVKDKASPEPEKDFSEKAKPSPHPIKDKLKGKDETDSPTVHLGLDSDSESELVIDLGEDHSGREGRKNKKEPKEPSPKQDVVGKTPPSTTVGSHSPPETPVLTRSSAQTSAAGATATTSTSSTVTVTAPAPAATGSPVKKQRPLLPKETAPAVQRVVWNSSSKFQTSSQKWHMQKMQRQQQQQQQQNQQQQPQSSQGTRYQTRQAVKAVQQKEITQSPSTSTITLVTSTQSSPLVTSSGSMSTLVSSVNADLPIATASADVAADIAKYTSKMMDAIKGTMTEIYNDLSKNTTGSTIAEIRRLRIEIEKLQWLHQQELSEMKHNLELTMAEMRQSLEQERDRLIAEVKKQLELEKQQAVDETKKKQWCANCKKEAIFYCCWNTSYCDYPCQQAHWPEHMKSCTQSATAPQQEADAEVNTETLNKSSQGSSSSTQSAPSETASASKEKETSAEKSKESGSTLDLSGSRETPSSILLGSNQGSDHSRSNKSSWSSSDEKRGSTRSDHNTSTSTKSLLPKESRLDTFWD
UniProt O43829: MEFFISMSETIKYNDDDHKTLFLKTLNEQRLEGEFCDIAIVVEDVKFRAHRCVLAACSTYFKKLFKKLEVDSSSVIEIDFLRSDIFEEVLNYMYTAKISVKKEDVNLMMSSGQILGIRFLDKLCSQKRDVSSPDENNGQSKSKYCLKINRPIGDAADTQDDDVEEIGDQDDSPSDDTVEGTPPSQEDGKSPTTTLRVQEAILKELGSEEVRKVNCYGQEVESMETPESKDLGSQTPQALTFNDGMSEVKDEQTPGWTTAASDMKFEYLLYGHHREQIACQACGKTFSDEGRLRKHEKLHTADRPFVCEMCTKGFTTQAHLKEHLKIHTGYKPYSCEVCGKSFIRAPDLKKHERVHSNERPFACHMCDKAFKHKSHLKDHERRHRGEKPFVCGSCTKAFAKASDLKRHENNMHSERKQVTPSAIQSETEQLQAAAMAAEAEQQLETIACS
UniProt Q96GR4: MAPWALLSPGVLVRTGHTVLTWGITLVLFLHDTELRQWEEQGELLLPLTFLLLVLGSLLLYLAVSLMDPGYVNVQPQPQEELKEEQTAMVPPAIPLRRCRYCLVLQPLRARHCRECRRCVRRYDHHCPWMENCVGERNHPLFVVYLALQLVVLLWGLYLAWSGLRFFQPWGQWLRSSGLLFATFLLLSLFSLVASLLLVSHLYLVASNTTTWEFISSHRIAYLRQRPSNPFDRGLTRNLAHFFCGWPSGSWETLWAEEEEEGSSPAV
UniProt Q8WW38: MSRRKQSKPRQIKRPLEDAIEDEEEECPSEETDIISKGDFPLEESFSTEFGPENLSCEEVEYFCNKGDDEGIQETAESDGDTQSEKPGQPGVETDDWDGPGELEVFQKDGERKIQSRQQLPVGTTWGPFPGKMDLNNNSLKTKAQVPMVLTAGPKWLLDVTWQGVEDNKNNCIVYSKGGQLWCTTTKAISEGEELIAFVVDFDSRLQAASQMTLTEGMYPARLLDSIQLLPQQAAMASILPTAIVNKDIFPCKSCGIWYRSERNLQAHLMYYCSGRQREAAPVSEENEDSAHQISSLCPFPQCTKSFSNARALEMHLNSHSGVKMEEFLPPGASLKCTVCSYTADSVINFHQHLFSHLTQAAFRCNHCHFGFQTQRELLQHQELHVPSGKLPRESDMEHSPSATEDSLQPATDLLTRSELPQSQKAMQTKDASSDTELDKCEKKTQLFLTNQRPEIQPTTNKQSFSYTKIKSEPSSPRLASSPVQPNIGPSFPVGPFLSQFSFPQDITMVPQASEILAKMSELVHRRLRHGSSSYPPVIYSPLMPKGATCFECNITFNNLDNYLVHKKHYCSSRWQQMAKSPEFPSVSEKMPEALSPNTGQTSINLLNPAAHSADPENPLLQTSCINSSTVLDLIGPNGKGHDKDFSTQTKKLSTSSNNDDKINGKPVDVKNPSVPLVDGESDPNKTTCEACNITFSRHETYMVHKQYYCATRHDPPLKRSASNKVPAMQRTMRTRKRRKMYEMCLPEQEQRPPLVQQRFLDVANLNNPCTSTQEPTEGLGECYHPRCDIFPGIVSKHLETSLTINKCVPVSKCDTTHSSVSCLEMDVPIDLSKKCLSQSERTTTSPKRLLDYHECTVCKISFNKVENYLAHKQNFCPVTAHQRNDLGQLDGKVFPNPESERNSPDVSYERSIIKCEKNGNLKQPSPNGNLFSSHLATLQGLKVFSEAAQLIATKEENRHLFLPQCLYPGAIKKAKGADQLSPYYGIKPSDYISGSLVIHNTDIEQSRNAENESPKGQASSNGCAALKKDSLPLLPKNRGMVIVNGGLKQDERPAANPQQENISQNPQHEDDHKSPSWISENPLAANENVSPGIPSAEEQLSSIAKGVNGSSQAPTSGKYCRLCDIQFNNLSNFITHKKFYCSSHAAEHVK
UniProt P07947, whole entry, looked up: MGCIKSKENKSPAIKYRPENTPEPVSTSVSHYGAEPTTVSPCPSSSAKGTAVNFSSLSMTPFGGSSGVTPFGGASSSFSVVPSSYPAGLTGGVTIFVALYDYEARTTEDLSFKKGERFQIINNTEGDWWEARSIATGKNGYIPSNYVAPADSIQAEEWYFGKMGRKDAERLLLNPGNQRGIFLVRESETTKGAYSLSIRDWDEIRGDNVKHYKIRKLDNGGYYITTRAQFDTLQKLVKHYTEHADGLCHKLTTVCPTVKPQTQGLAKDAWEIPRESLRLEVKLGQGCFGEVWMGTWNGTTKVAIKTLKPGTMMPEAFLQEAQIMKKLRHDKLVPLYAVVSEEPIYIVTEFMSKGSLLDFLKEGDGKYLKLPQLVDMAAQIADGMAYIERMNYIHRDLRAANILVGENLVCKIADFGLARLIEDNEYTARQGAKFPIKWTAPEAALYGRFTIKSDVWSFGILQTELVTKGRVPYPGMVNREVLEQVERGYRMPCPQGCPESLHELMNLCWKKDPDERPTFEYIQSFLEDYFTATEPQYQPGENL
UniProt Q9BQ24: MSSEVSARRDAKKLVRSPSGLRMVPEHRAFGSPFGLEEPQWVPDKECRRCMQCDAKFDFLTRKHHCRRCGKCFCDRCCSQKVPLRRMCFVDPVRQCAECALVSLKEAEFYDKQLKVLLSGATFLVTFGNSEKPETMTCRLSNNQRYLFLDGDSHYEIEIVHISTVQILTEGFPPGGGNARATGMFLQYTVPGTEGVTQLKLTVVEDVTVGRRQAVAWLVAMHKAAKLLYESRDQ
UniProt O15156: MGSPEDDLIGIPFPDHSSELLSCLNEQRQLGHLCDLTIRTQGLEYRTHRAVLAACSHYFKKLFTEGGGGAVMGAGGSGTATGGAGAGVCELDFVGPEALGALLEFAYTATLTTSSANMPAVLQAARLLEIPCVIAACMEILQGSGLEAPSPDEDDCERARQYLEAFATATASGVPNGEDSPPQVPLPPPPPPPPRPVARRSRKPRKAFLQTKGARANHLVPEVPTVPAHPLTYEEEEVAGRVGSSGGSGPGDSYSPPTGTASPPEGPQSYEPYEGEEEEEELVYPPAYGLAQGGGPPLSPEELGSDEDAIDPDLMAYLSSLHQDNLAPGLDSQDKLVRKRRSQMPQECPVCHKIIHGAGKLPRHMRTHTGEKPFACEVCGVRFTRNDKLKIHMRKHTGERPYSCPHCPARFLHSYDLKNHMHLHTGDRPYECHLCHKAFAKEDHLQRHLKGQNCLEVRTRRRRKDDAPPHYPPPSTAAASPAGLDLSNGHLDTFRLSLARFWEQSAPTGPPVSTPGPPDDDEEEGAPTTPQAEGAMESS

Experiments:
Experiment in all cases: log2 fold change, soluble protein after heating vs DMSO (PISA); higher = thermal stabilisation; K562 cells, 10 uM, 30 min; active = over 0.2 and 3.5 SD of the protein, either way, in both replicates (recomputed)
[1] = compound: CCCCN(Cc1ccc(C(=O)NO)cc1)C(=O)Nc1ccccc1 [Nexturastat A]
How it was run: (§1)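 K562 cells at 2×10^6 cells/mL were treated with 10 μM compound for 30 min. Aliquots were heated for 3 min across 48°C-58°C, pooled, and extracted in PBS with 0.5% NP-40 at 4°C; soluble protein was the supernatant after 21,000xg for 90 min. Soluble protein was quantified by TMTpro 16plex LC-MS/MS with channel sums equalised, and reported as log2 fold change in thermal stability against DMSO controls, with values from duplicates.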

[2] = compound: CCN(CC)Cc1ccc2cc(COC(=O)Nc3ccc(C(=O)NO)cc3)ccc2c1 [givinostat]
How it was run: as §1

[3] = compound: CC[C@H](C)[C@@H](C(=O)N[C@@H]([C@@H](C)O)C(=O)N[C@@H](CC(C)C)C(=O)[C@]1(CO1)C)NC(=O)[C@H]([C@@H](C)CC)N(C)C(=O)C [epoxomicin]
How it was run: as §1

[4] = compound: CCn1c(C(=O)N(C2CC2)C2CC2)cc2c3c(ncn3C)c(Nc3cc(C)n(C)n3)nc21
How it was run: as §1

[5] = compound: CC1=C(C=C(C=C1)NC(=O)C2=CC(=CC=C2)C(C)(C)C#N)NC3=CC4=C(C=C3)N=CN(C4=O)C
How it was run: as §1

[6] = compound: CCCc1cc(C)[nH]c(=O)c1CNC(=O)c1cc(-c2ccnc(N3CCN(C)CC3)c2)cc2c1cnn2C(C)C
How it was run: as §1

[7] = compound: CCN(CCCOc1ccc2c(Nc3cc(CC(=O)Nc4cccc(F)c4)[nH]n3)ncnc2c1)CCOP(=O)(O)O [barasertib]
How it was run: as §1

[8] = compound: CC1=C(C=C(C=C1)NC(=O)C2=CC(=CC=C2)N(C)C)NC(=O)C3=CC=C(C=C3)O
How it was run: as §1

[9] = compound: CC[C@@H]1C(=O)N(C)c2cnc(Nc3ccc(C(=O)NC4CCN(C)CC4)cc3OC)nc2N1C1CCCC1
How it was run: as §1

[10] = compound: CC[C@H](C)N1C=C(C2=C(C=C(C=C21)C3=CN=C(C=C3)N4CCNCC4)C(=O)NCC5=C(C=C(NC5=O)C)C)C
How it was run: as §1

[11] = compound: CCn1cc(-c2ccnc3[nH]c(-c4cccc(CN(C)C)c4)cc23)c(-c2ccc(NC(=O)N(C)C)cc2)n1
How it was run: as §1

[12] = compound: CN(CCOC1=CC=C(C=C1)C[C@H]2C(=O)NC(=O)S2)C3=CC=CC=N3 (racemic) [rosiglitazone]
How it was run: as §1

[13] = compound: CN1C2=C(C3=C1C(=O)N(N=C3)CC4=CC(=CC=C4)N)SC(=C2)S(=O)C
How it was run: as §1

[14] = compound: CN1CCC(CNc2ccc3ncc(-c4cccc(OC(F)(F)F)c4)n3n2)CC1
How it was run: as §1

[15] = compound: CCCS(=O)(=O)Nc1ccc(F)c(C(=O)c2c[nH]c3ncc(-c4ccc(Cl)cc4)cc23)c1F [vemurafenib]
How it was run: as §1

[16] = compound: CN(C)CC(=O)Nc1ccc2[nH]c(=O)c3ccccc3c2c1
How it was run: as §1

[17] = compound: CC1=CC=C(C=C1)SC2=C3C=C(SC3=CN=C2)C(=O)N
How it was run: as §1

[18] = compound: CCCS(=O)(=O)Nc1ccc(F)c(C(=O)c2c[nH]c3ncc(Cl)cc23)c1F
How it was run: as §1

[19] = compound: CC[C@@H]1C(=O)N(C)c2cnc(Nc3ccc(C(=O)N[C@H]4CC[C@H](N5CCN(CC6CC6)CC5)CC4)cc3OC)nc2N1C(C)C [volasertib]
How it was run: as §1

[20] = compound: CC1=NC(=CC=C1)C2=C(N=C(N2)C(C)(C)C)C3=CC4=NC=CN=C4C=C3
How it was run: as §1

Measured: log2 fold change

XYLB (UniProt O75191)
inactive: [1] 0.19 | [2] 0.19 | [3] -0.075 | [4] 0.026

ZBTB17 isoform 2 (UniProt Q13105)
inactive: [5] 0.018 | [6] -0.158 | [2] -0.011 | [7] -0.048

XP32 (UniProt Q5T750)
inactive: [8] 0.01 | [6] 0.218 | [7] 0.256 | [9] 0.208 | [10] 0.123 | [11] -0.532 | [12] -0.078 | [13] 0.57 | [14] -0.632

ZCCHC17 (UniProt Q9NP64)
inactive: [5] -0.065 | [15] -0.396 | [16] -0.059

XPA (UniProt P23025)
inactive: [8] 0.01 | [17] 0.086 | [1] 0.181 | [15] 0.308 | [18] 0.134 | [19] -0.558 | [10] 0.006 | [3] -0.003 | [11] 0.087 | [16] 0.07 | [14] -0.175

ZDHHC8 isoform 3 (UniProt Q9ULC8)
inactive: [20] -0.03 | [1] -0.151 | [7] 0.028 | [10] -0.064 | [3] -0.037 | [13] 0.121

ZMYND8 isoform 19 (UniProt Q9ULU4)
inactive: [17] 0.022 | [20] -0.093 | [1] 0.011 | [18] 0.067 | [2] 0.126 | [7] -0.009 | [9] -0.069 | [19] -0.181 | [3] 0.247 | [4] -0.096 | [12] 0.032 | [13] 0.051

YTHDF1 (UniProt Q9BYJ9)
inactive: [20] 0.107 | [1] 0.341 | [2] 0.137 | [7] 0.335 | [3] -0.235 | [4] -0.009 | [12] -0.185

ZBTB14 (UniProt O43829)
inactive: [8] -0.054 | [6] -0.034 | [2] -0.02 | [7] 0.258 | [4] -0.014 | [12] -0.06

ZC3H11A (UniProt O75152)
inactive: [17] -0.03 | [15] 0.057 | [18] 0.065 | [6] 0.163 | [7] 0.071 | [9] -0.297 | [19] -0.369 | [10] 0.002 | [11] 0.049 | [16] 0.11 | [12] -0.045 | [13] -0.127 | [14] -0.039

ZKSCAN4 (UniProt Q969J2)
inactive: [8] -0.123 | [15] 0.028 | [16] -0.187

ZDHHC12 isoform 3 (UniProt Q96GR4)
inactive: [17] -0.012 | [20] -0.082 | [15] -0.24 | [18] -0.008 | [19] 0.043 | [16] -0.028 | [13] -0.257

ZFPM2 (UniProt Q8WW38)
inactive: [6] 0.045

YIF1A (UniProt O95070)
inactive: [8] -0.079 | [17] -0.162 | [20] -0.061 | [15] 0.217 | [18] -0.116 | [6] -0.017 | [2] 0.054 | [7] 0.05 | [19] -0.021 | [10] 0.024 | [4] 0.134 | [11] -0.041 | [16] 0.1 | [12] -0.007 | [13] 0.071 | [14] -0.047

ZNF225 (UniProt Q9UK10)
inactive: [7] -0.066 | [12] 0.047

YES1 (UniProt P07947)
inactive: [8] 0.037 | [17] 0.03 | [20] 0.008 | [1] 0.142 | [15] -0.159 | [18] -0.217 | [6] 0.075 | [2] 0.016 | [7] -0.006 | [9] 0.129 | [19] -0.038 | [10] 0.112 | [3] 0.009 | [11] -0.241 | [16] -0.075 | [13] 0.053 | [14] -0.326

ZFYVE21 isoform 2 (UniProt Q9BQ24)
inactive: [8] 0.088 | [15] -0.105 | [2] 0.093 | [9] -0.097 | [4] -0.179 | [11] 0.123 | [16] 0.256 | [13] -0.018 | [14] -0.562

ZBTB7B isoform 2 (UniProt O15156)
inactive: [5] -0.046 | [15] -0.082 | [9] 0.142 | [16] 0.067
